Assay results published in patent publication US20090004645A1, “Methods for Identifying Genes that Mediate a Response of a Living Cell to an Agent” (Rosetta Inpharmatics LLC, priority 2004, published 2009).
The name of at least one read-out is uncertain.

Test system: human colon cancer cell lines
Test: Dose response of colon cancer cell lines to L′962, cell survival by Alamar blue assay
Type: cell-based
Conditions: 24 human colon cancer cell lines; 72 hours treatment; survival as percentage of control cell growth

CC(C)[C@H](N)C(=O)N1CC(c2cc(F)ccc2F)=C[C@H]1c1ccccc1 [L′962, (1S)-1-{[(2S)-4-(2,5-difluorophenyl)-2-phenyl-2,5-dihydro-1H-pyrrol-1-yl]carbonyl}-2-methylpropylamine]
sensitivity of cell lines to L′962 based on EC50 values: segregated into two clearly distinguishable populations differing in sensitivity to L′962
